Laboratory results: patent US7652009B2, “Substituted heterocycles and methods of use” (Amgem Inc., priority 2004, dated 2010)
Some entries share one result that the patent states for a list of compounds.

By UniProt entry, the sequences of proteins in these tests, tags left out. Residues count along the entry.
UniProt P08581, 1058-1365: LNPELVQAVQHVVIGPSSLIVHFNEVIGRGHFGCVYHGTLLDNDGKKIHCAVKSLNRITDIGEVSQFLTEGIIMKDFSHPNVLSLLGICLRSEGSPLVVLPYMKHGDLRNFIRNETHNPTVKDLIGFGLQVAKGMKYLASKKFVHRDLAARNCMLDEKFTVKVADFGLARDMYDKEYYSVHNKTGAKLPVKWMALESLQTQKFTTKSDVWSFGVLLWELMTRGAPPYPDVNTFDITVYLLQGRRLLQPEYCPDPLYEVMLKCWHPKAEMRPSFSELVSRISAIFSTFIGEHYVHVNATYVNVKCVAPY

These compounds were tested against T1, c-Met kinase domain (GST-cMet) (Homo sapiens, UniProt P08581) (assay: c-Met receptor assay (HTRF kinase assay)). Details: GST-cMet (P) 1 nM, ATP 4 μM, gastrin 1 μM.
T1 construct: A PCR product covering residues 1058-1365 of c-Met (c-Met kinase domain); made in house; host or cells: High5 insect cells, recombinant baculovirus (modified pFastBac1, BacToBac)
Type: biochemical

| SMILES | IC50 [nM] |
| --- | --- |
| COc1cc2nccc(Oc3ccc(-c4cnc(Nc5cccc(F)c5)n(C)c4=O)cc3F)c2cc1OC [Example 11, 5-[4-(6,7-Dimethoxy-quinolin-4-yloxy)-3-fluorophenyl]-2-(3-fluoro-phenylamino)-3-methyl-3H-pyrimidin-4-one] | < 500 |
| COc1cc2nccc(Oc3ccc(-c4cnc(SC)n(C)c4=O)cc3F)c2cc1OC [Example 12, 5-(4-((6,7-bis(methoxy)-4-quinolinyl)oxy)-3-fluorophenyl)-3-methyl-2-methylthio-4(3H)-pyrimidinone] | < 500 |
| COc1cc2c(Oc3ccc(N4C(=O)CN(CC(C)C)C4=O)cc3F)ccnc2cc1OCCCN1CCOCC1 [Example 72, 3-{3-Fluoro-4-[6-methoxy-7-(3-morpholin-4-yl-propoxy)-quinolin-4-yloxy]-phenyl}-1-isobutyl-imidazolidine-2,4-dione] | < 500 |
| COc1cc2nccc(Oc3ccc(-c4cnc(N5CCCC5)n(C)c4=O)cc3F)c2cc1OC [Example 27, 5-(4-((6,7-bis(methoxy)-4-quinolinyl)oxy)-3-fluorophenyl)-3-methyl-2-(1-pyrrolidinyl)-4(3H)-pyrimidinone] | < 500 |
| COc1cc2nccc(Oc3ccc(-c4cnc(NCc5ccccc5)n(C)c4=O)cc3F)c2cc1OC [Example 34, 5-(4-((6,7-bis(methoxy)-4-quinolinyl)oxy)-3-fluorophenyl)-3-methyl-2-((phenylmethyl)amino)-4(3H)-pyrimidinone] | < 500 |
| COc1cc2nccc(Oc3ccc(-c4ncc(Nc5ccccc5)cn4)cc3F)c2cc1OC [Example 39, {2-[4-(6,7-Dimethoxy-quinolin-4-yloxy)-3-fluoro-phenyl]-pyrimidin-5-yl}-phenyl-amine] | < 500 |
| COc1cc2nccc(Oc3ccc(N4CC(Cc5ccccc5)CC4=O)cc3F)c2cc1OC (stereo not drawn) [Example 81, 4-Benzyl-1-[4-(6,7-dimethoxy-quinolin-4-yloxy)-3-fluoro-phenyl]-pyrrolidin-2-one] | < 500 |
| COc1cc2nccc(Oc3ccc(-c4cnc(N(C)c5ccccc5)n(C)c4=O)cc3F)c2cc1OC [Example 24, 5-(4-(6,7-bis(methoxy)-4-quinolinyloxy)-3-fluorophenyl)-3-methyl-2-(methyl(phenyl)amino)-4(3H)-pyrimidinone] | < 500 |
| COc1cc2c(Oc3ccc(N4CC(=O)N(Cc5ccccc5)CC4=O)cc3F)ccnc2cc1OCCCN1CCOCC1 [Example 37b, 1-Benzyl-4-{3-fluoro-4-[6-methoxy-7-(3-morpholin-4-yl-propoxy)-quinolin-4-yloxy]-phenyl}-piperazine-2,5-dione] | < 500 |
| COc1cc2nccc(Oc3ccc(-c4cnc(Nc5ccc(C)cc5)n(C)c4=O)cc3F)c2cc1OC [Example 18, 5-(4-((6,7-bis(methoxy)-4-quinolinyl)oxy)-3-fluorophenyl)-3-methyl-2-((4-methylphenyl)amino)-4(3H)-pyrimidinone] | < 500 |
| COc1cc2nccc(Oc3ccc(-c4cnc(NCC(C)C)n(C)c4=O)cc3F)c2cc1OC [Example 23, 5-(4-((6,7-bis(methoxy)-4-quinolinyl)oxy)-3-fluorophenyl)-3-methyl-2-((2-methylpropyl)amino)-4(3H)-pyrimidinone] | < 500 |
| COc1cc2c(Oc3ccc(N4C(=O)CN(Cc5ccccc5)C4=O)cc3F)ccnc2cc1OCCCN1CCOCC1 [Example 52, 1-Benzyl-3-(3-fluoro-4-(6-methoxy-7-(3-morpholino-propoxy)quinolin-4-yloxy)phenyl)imidazolidine-2,4-dione] | < 500 |
| COc1cc2nccc(Oc3ccc(-c4cnc(C5CCCC5)n(C)c4=O)cc3F)c2cc1OC [Example 16, 5-(4-((6,7-bis(methoxy)-4-quinolinyl)oxy)-3-fluorophenyl)-2-cyclopentyl-3-methyl-4(3H)-pyrimidinone] | < 500 |
| CCOC(c1ccccc1)C1CC(=O)N(c2ccc(Oc3ccnc4cc(OC)c(OC)cc34)c(F)c2)C1 (stereo not drawn) [Example 56, 1-(4-((6,7-bis(methoxy)-4-quinolinyl)oxy)-3-fluorophenyl)-4-((ethoxy)(phenyl)methyl)-2-pyrrolidinone] | < 500 |
| COc1cc2nccc(Oc3ccc(-c4ncc(N(CCC(C)C)c5ccccc5)cn4)cc3F)c2cc1OC [Example 40, 2-(4-(6,7-Dimethoxynaphthalen-1-yloxy)-3-fluorophenyl)-N-isopentyl-N-phenylpyrimidin-5-amine] | < 500 |
| COc1cc2nccc(Oc3ccc(-c4cnc(-c5ccccc5)n(C)c4=O)cc3F)c2cc1OC [Example 26, 5-(4-(6,7-bis(methoxy)-4-quinolinyloxy)-3-fluorophenyl)-3-methyl-2-phenyl-4(3H)-pyrimidinone] | < 500 |
| COc1cc2nccc(Oc3ccc(-c4ccc(Nc5ccccc5)nn4)cc3)c2cc1OC [Example 41, {6-[4-(6,7-Dimethoxy-quinolin-4-yloxy)-phenyl]-pyridazin-3-yl}-phenyl-amine] | < 500 |
| COc1cc2c(Oc3ccc(N4CC(=O)N(Cc5ccccc5)C4=O)cc3F)ccnc2cc1OCCCN1CCOCC1 [Example 83, 3-Benzyl-1-{3-fluoro-4-[6-methoxy-7-(3-morpholin-4-yl-propoxy)-quinolin-4-yloxy]-phenyl}-imidazolidine-2,4-dione] | < 500 |

| SMILES | IC50 [nM] |
| --- | --- |
| COc1cc2c(Oc3ccc(N4C(=O)CN(c5ccccc5)C4=O)cc3F)ccnc2cc1OCc1ccccc1 [Example 71, 3-[4-(7-Benzyloxy-6-methoxy-quinolin-4-yloxy)-3-fluoro-phenyl)-1-phenyl-imidazolidine-2,4-dione] | < 500 |
| COc1cc2nccc(Oc3ccc(-c4ccc(Oc5ccccc5)nn4)cc3F)c2cc1OC [Example 43, 4-[2-Fluoro-4-(6-phenoxy-pyridazin-3-yl)-phenoxy]-6,7-dimethoxy-quinoline] | < 500 |
| COc1cc2c(Oc3ccc(N4C(=O)N[C@@H](C)C4=O)cc3F)ccnc2cc1OCCCN1CCOCC1 [Example 66, 3-{3-Fluoro-4-[6-methoxy-7-(3-morpholin-4-yl-propoxy)-quinolin-4-yloxy]-phenyl}-5-methyl-imidazolidine-2,4-dione] | < 500 |
| COc1cc2nccc(Oc3ccc(N4C[C@H](COc5ccccc5)CC4=O)cc3F)c2cc1OC [Example 86, 1-[4-(6,7-Dimethoxy-quinolin-4-yloxy)-3-fluoro-phenyl]-4-phenoxymethyl-pyrrolidin-2-one] | < 500 |
| COc1cc2nccc(Oc3ccc(N4CC(NC(=O)c5ccccc5)CC4=O)cc3F)c2cc1OC (stereo not drawn) [Example 46, N-(1-(4-(6,7-Dimethoxyquinolin-4-yloxy)-3-fluorophenyl)-5-oxopyrrolidin-3-yl)benzamide] | < 500 |
| COc1cc2c(Oc3ccc(N4C(=O)CN(Cc5ccccc5)C4=O)cc3F)ccnc2cc1OCc1ccccc1 [Example 51, 1-Benzyl-3-(4-(7-(benzyloxy)-6-methoxyquinolin-4-yloxy)-3-fluorophenyl)imidazolidine-2,4-dione] | < 500 |
| COc1cc2c(Oc3ccc(-c4cnc(Cc5ccccc5)n(C)c4=O)cc3F)ccnc2cc1OCc1ccccc1 [Example 31] | < 500 |
| COc1cc2nccc(Oc3ccc(-c4cnc(N(CCC(C)C)c5ccccc5)n(C)c4=O)cc3F)c2cc1OC [Example 29, 5-(4-((6,7-bis(methoxy)-4-quinolinyl)oxy)-3-fluorophenyl)-3-methyl-2-((3-methylbutyl)(phenyl)amino)-4(3H)-pyrimidinone] | < 500 |
| COc1cc2nccc(Oc3ccc(N4CC(C(OC)c5ccccc5)CC4=O)cc3F)c2cc1OC (stereo not drawn) [Example 49, 1-(4-(6,7-Dimethoxyquinolin-4-yloxy)-3-fluorophenyl)-4-(methoxy(phenyl)methyl)pyrrolidin-2-one] | < 500 |
| COc1cc2nccc(Oc3ccc(-c4cnc(NCC5CC5)n(C)c4=O)cc3F)c2cc1OC [Example 33, 5-(4-((6,7-bis(methoxy)-4-quinolinyl)oxy)-3-fluorophenyl)-2-((cyclopropylmethyl)amino)-3-methyl-4(3H)-pyrimidinone] | < 500 |
| COc1cc2nccc(Oc3ccc(-c4ccc(Cc5ccccc5)nn4)cc3F)c2cc1OC [Example 42, 4-[4-(6-Benzyl-pyridazin-3-yl)-2-fluoro-phenoxy]-6,7-dimethoxy-quinoline] | < 500 |
| COc1cc2nccc(Oc3ccc(-c4cnc(NC(C)c5ccccc5)n(C)c4=O)cc3F)c2cc1OC (stereo not drawn) [Example 25, 5-(4-(6,7-bis(methoxy)-4-quinolinyloxy)-3-fluorophenyl)-3-methyl-2-((1-phenylethyl)amino)-4(3H)-pyrimidinone] | < 500 |
| CCCO[C@@H](c1ccccc1)[C@@H]1CC(=O)N(c2ccc(Oc3ccnc4cc(OC)c(OC)cc34)c(F)c2)C1 [Example 69, 1-[4-(6,7-Dimethoxy-quinolin-4-yloxy)-3-fluoro-phenyl]-4-(phenyl-propoxy-methyl)-pyrrolidin-2-one] | < 500 |
| COc1cc2nccc(Oc3ccc(N4C(=O)CN(Cc5ccccc5)C4=O)cc3F)c2cc1OC [Example 63, 3-(4-((6,7-bis(methoxy)-4-quinolinyl)oxy)-3-fluorophenyl)-1-(phenylmethyl)-2,4-imidazolidinedione] | < 500 |
| COc1cc2c(Oc3ccc(N4CCNC4=O)cc3F)ccnc2cc1OCCCN1CCOCC1 [Example 55, 1-(3-Fluoro-4-((6-(methoxy)-7-(3-(4-morpholinyl)propoxy)-4-quinolinyl)oxy)phenyl)-2-imidazolidinone] | < 500 |
| CCCO[C@@H](c1ccccc1)[C@H]1CC(=O)N(c2ccc(Oc3ccnc4cc(OC)c(OC)cc34)c(F)c2)C1 [Example 79, 1-[4-(6,7-Dimethoxy-quinolin-4-yloxy)-3-fluoro-phenyl]-4-(phenyl-propoxy-methyl)-pyrrolidin-2-one] | < 500 |
| COc1cc2nccc(Oc3ccc(N4CC(COc5ccccc5)CC4=O)cc3F)c2cc1OC (stereo not drawn) [Example 45, 1-(4-(6,7-Dimethoxyquinolin-4-yloxy)-3-fluorophenyl)-4-(phenoxymethyl)pyrrolidin-2-one] | < 500 |
| COc1cc2nccc(Oc3ccc(N4CC(C(=O)c5ccccc5)CC4=O)cc3F)c2cc1OC (stereo not drawn) [Example 47, 4-Benzoyl-1-(4-(6,7-dimethoxyquinolin-4-yloxy)-3 fluorophenyl)pyrrolidin-2-one] | < 500 |
